# This is one part of the list.
# B1: LF82 (Escherichia coli) (protein)
# chain: ADWGPCRTASGDPFIFVTSFTKNIQNPTDNVTGQTYPDFYQWALGDKYSGVCECPSPNPTEARPTLYKTESTLAAGHNSTYFKITNNLEVSTRVYIANVGNVQVPFINKSNSQPGRECDQPTFGWTTGSKGQLSLYIAKPFVGEQNIPQTIIVSVFGTKKENVYSSVPISQVLLSGKVTVTQGCELAAGTSLDIDFGEYQAHDFKGRTGQPPQNVQKIQKELTFNCTNISDGVHIYLSLEGTPNAAYPSAISLGNADVGAVIEDGKGNILKPNDSNSLLEMNPGSLYEYVKRKVTTTITAYPVSTTGKLPAAGDYSGVATMHVELDGGGGGGGGGGATTDLGAKGTLKFSLKISQGHHHHHH
# What was measured:
# Assay in all cases: glycan array binding signal (z-score within array); higher = stronger binding
# Conditions in all cases: glycan notation: IUPAC condensed, linker removed
# [1] = molecular target: Fuc(a1-3)[Gal3S(b1-4)]GlcNAc6S
# Summary of the method: (§1)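 The Consortium for Functional Glycomics database supplied 3228 glycan arrays, of which those lacking an available protein sequence were dropped. The binding signal, a within-array Z-score, was averaged across arrays of the same protein sequence and across linkers. Negative scores can be read as non-binding.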
# [2] = molecular target: Fuc(a1-3)[GalNAc(b1-4)]GlcNAc
# Summary of the method: as §1
# [3] = molecular target: Fuc(a1-3)[GalNAc(b1-4)]GlcNAc6S
# Summary of the method: as §1
# [4] = molecular target: Fuc(a1-4)GlcNAc
# Summary of the method: as §1
# [5] = molecular target: Fuc(b1-3)GlcNAc
# Summary of the method: as §1
# [6] = molecular target: Gal(a1-2)Gal
# Summary of the method: as §1
# [7] = molecular target: Gal(a1-3)Gal
# Summary of the method: as §1
# [8] = molecular target: Gal(a1-3)Gal(b1-3)GlcNAc
# Summary of the method: as §1
# [9] = molecular target: Gal(a1-3)Gal(b1-3)GlcNAc(b1-2)Man
# Summary of the method: as §1
# [10] = molecular target: Gal(a1-3)Gal(b1-3)GlcNAc(b1-2)Man(a1-3)[Gal(a1-3)Gal(b1-3)GlcNAc(b1-2)Man(a1-6)]Man(b1-4)GlcNAc(b1-4)GlcNAc
# Summary of the method: as §1
# [11] = molecular target: Gal(a1-3)Gal(b1-3)GlcNAc(b1-3)GalNAc
# Summary of the method: as §1
# [12] = molecular target: Gal(a1-3)Gal(b1-3)GlcNAc(b1-6)GalNAc
# Summary of the method: as §1
# [13] = molecular target: Gal(a1-3)Gal(b1-3)[Fuc(a1-4)]GlcNAc(b1-2)Man(a1-3)[Gal(a1-3)Gal(b1-3)[Fuc(a1-4)]GlcNAc(b1-2)Man(a1-6)]Man(b1-4)GlcNAc(b1-4)GlcNAc
# Summary of the method: as §1
# [14] = molecular target: Gal(a1-3)Gal(b1-4)Glc
# Summary of the method: as §1
# [15] = molecular target: Gal(a1-3)Gal(b1-4)GlcNAc
# Summary of the method: as §1
# [16] = molecular target: Gal(a1-3)Gal(b1-4)GlcNAc(b1-2)Man
# Summary of the method: as §1
# [17] = molecular target: Gal(a1-3)Gal(b1-4)GlcNAc(b1-2)Man(a1-3)[Gal(a1-3)Gal(b1-4)GlcNAc(b1-2)Man(a1-6)]Man(b1-4)GlcNAc(b1-4)GlcNAc
# Summary of the method: as §1
# [18] = molecular target: Gal(a1-3)Gal(b1-4)GlcNAc(b1-3)GalNAc
# Summary of the method: as §1
# [19] = molecular target: Gal(a1-3)Gal(b1-4)GlcNAc(b1-6)GalNAc
# Summary of the method: as §1
# [20] = molecular target: Gal(a1-3)Gal(b1-4)[Fuc(a1-3)]GlcNAc
# Summary of the method: as §1
# [21] = molecular target: Gal(a1-3)Gal(b1-4)[Fuc(a1-3)]GlcNAc(b1-2)Man(a1-3)[Gal(a1-3)Gal(b1-4)[Fuc(a1-3)]GlcNAc(b1-2)Man(a1-6)]Man(b1-4)GlcNAc(b1-4)GlcNAc
# Summary of the method: as §1
# [22] = molecular target: Gal(a1-3)GalNAc
# Summary of the method: as §1
# [23] = molecular target: Gal(a1-3)[Gal(a1-4)]Gal(b1-4)GlcNAc
# Summary of the method: as §1
# [24] = molecular target: Gal(a1-4)Gal(b1-3)GlcNAc(b1-2)Man(a1-3)[Gal(a1-4)Gal(b1-3)GlcNAc(b1-2)Man(a1-6)]Man(b1-4)GlcNAc(b1-4)GlcNAc
# Summary of the method: as §1
# [25] = molecular target: Gal(a1-4)Gal(b1-4)Glc
# Summary of the method: as §1
# [26] = molecular target: Gal(a1-4)Gal(b1-4)GlcNAc
# Summary of the method: as §1
# [27] = molecular target: Gal(a1-4)Gal(b1-4)GlcNAc(b1-2)Man(a1-3)[Gal(a1-4)Gal(b1-4)GlcNAc(b1-2)Man(a1-6)]Man(b1-4)GlcNAc(b1-4)GlcNAc
# Summary of the method: as §1
# [28] = molecular target: Gal(a1-4)Gal(b1-4)GlcNAc(b1-3)Gal(b1-4)Glc
# Summary of the method: as §1
# [29] = molecular target: Gal(a1-4)GlcNAc
# Summary of the method: as §1
# [30] = molecular target: Gal(a1-6)Glc
# Summary of the method: as §1
# [31] = molecular target: Gal(b1-2)Gal
# Summary of the method: as §1
# [32] = molecular target: Gal(b1-3)Gal
# Summary of the method: as §1
# [33] = molecular target: Gal(b1-3)Gal(b1-4)GlcNAc
# Summary of the method: as §1
# [34] = molecular target: Gal(b1-3)GalNAc
# Summary of the method: as §1
# [35] = molecular target: Gal(b1-3)GalNAc(a1-3)[Fuc(a1-2)]Gal(b1-4)Glc
# Summary of the method: as §1
# [36] = molecular target: Gal(b1-3)GalNAc(a1-3)[Fuc(a1-2)]Gal(b1-4)GlcNAc
# Summary of the method: as §1
# [37] = molecular target: Gal(b1-3)GalNAc(b1-3)Gal
# Summary of the method: as §1
binder,measurement,setting,value
B1,glycan array binding signal (z-score),[1],0.049
same,glycan array binding signal (z-score),[2],-0.256
same,glycan array binding signal (z-score),[3],-1.54
same,glycan array binding signal (z-score),[4],-0.348
same,glycan array binding signal (z-score),[5],0.155
same,glycan array binding signal (z-score),[6],-1.81
same,glycan array binding signal (z-score),[7],1.5
same,glycan array binding signal (z-score),[8],-0.354
same,glycan array binding signal (z-score),[9],1.54
same,glycan array binding signal (z-score),[10],0.013
same,glycan array binding signal (z-score),[11],-0.374
same,glycan array binding signal (z-score),[12],-0.546
same,glycan array binding signal (z-score),[13],0.456
same,glycan array binding signal (z-score),[14],0.52
same,glycan array binding signal (z-score),[15],-0.503
same,glycan array binding signal (z-score),[16],-0.483
same,glycan array binding signal (z-score),[17],0.554
same,glycan array binding signal (z-score),[18],-0.989
same,glycan array binding signal (z-score),[19],1.11
same,glycan array binding signal (z-score),[20],-1.48
same,glycan array binding signal (z-score),[21],1.79
same,glycan array binding signal (z-score),[22],0.188
same,glycan array binding signal (z-score),[23],-0.81
same,glycan array binding signal (z-score),[24],-0.975
same,glycan array binding signal (z-score),[25],-0.738
same,glycan array binding signal (z-score),[26],-0.545
same,glycan array binding signal (z-score),[27],0.185
same,glycan array binding signal (z-score),[28],-1.42
same,glycan array binding signal (z-score),[29],-1.69
same,glycan array binding signal (z-score),[30],-1
same,glycan array binding signal (z-score),[31],-0.109
same,glycan array binding signal (z-score),[32],-0.896
same,glycan array binding signal (z-score),[33],-0.773
same,glycan array binding signal (z-score),[34],-0.509
same,glycan array binding signal (z-score),[35],2.29
same,glycan array binding signal (z-score),[36],-1.51
same,glycan array binding signal (z-score),[37],-1.33

# Random excerpt: 2 entries already listed
binder,measurement,setting,value
B1,glycan array binding signal (z-score),[26],-0.545
same,glycan array binding signal (z-score),[21],1.79
